Results as given in paper PMC5507986.
These are yes or no findings as the source states them, for the method shown. In cells and extracts the contact can be indirect. Some entries that bind do so weakly or less than the wild type. For part of these data: Where a sequence is shown, tags or fusion partners need not be part of it.

The chains behind the UniProt entries cited, without tags or fusion partners.
UniProt A2A935: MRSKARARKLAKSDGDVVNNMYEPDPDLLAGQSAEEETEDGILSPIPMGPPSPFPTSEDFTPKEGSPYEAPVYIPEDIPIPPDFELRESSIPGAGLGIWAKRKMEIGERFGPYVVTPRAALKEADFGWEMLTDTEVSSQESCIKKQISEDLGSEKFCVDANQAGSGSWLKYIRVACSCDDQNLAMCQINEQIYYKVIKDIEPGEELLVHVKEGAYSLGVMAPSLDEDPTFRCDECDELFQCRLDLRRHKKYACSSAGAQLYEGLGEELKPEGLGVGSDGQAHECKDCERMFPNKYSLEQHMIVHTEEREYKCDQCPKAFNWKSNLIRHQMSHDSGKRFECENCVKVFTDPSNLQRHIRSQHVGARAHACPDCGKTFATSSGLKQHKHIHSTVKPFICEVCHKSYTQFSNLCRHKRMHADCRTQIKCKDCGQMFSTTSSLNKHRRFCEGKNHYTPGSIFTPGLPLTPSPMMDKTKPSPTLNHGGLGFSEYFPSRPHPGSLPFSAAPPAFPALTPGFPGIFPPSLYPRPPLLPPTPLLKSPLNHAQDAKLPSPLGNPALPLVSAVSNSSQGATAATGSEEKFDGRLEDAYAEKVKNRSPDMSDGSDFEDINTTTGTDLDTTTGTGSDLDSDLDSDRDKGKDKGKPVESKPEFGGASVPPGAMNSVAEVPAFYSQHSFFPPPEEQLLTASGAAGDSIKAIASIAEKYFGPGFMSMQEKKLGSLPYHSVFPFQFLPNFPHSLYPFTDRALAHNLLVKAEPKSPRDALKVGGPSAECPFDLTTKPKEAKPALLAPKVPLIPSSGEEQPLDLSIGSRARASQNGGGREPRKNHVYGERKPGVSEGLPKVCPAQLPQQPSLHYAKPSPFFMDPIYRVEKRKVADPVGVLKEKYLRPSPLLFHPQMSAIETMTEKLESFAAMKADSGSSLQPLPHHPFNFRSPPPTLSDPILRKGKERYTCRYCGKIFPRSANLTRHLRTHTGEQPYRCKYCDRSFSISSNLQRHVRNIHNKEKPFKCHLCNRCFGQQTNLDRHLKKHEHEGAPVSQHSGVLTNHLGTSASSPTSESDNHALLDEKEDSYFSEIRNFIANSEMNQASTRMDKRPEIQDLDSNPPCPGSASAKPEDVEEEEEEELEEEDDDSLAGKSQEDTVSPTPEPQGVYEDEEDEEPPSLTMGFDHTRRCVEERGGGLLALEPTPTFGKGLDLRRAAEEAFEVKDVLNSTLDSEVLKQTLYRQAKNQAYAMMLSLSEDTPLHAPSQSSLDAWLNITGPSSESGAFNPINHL

T1: Flag-Hlx (not stated (human or mouse cDNA cloned)) (UniProt Q61670)
T1 sequence: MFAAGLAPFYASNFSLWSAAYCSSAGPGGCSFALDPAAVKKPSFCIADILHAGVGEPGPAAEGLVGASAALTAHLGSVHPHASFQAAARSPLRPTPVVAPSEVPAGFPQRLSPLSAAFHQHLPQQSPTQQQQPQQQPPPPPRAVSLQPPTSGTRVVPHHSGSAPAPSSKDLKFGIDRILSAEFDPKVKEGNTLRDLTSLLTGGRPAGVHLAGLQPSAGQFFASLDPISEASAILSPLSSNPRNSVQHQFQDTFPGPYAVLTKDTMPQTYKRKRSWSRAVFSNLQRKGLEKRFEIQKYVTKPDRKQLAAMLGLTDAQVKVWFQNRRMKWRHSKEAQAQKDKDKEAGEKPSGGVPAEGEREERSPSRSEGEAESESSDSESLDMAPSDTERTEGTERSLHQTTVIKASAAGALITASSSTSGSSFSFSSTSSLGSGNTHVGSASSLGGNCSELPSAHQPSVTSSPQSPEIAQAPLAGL

T2: Hlx (endogenous, brown adipocytes) (mouse (endogenous in immortalized brown adipocytes)) (UniProt Q61670)
T2 sequence: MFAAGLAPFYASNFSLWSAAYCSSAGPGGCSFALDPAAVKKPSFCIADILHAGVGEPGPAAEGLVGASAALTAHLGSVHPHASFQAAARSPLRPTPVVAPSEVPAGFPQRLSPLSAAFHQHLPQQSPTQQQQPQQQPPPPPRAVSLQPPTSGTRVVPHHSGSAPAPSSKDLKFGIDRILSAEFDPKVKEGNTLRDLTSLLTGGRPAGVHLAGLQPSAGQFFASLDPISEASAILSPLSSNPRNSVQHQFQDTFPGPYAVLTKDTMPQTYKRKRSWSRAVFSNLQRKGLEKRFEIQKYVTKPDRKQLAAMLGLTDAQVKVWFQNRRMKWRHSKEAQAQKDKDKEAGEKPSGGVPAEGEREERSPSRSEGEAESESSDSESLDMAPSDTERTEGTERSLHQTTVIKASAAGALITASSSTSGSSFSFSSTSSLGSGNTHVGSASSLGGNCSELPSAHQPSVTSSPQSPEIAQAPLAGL


Assays:
[1] = molecular target: T1, Flag-Hlx (not stated (human or mouse cDNA cloned)); experiment: co-IP; Flag-Hlx (or vector) and HA-tagged partner transfected into HEK293 cells, 48 h; extracts in 100 mM NaCl, 50 mM Tris pH 7.5, 0.5% Triton X-100, 5% glycerol; anti-Flag M2 affinity gel 3 h; four washes (100 mM NaCl, 50 mM Tris pH 7.5, 0.1% NP-40, 3% glycerol); blot with HA antibody
[2] = molecular target: T2, Hlx (endogenous, brown adipocytes) (mouse (endogenous in immortalized brown adipocytes)); experiment: co-IP; endogenous proteins; differentiated brown adipocyte extracts; Hlx antibody or IgG overnight at 4 °C, protein-A beads 3 h; five washes; blot with Prdm16 antibody

Row | binding [1] | Molecule | binding [2]
1 | binds | HA-Prdm16 (from UniProt A2A935 1-1275) | 
2 |  | Prdm16 (endogenous, brown adipocytes) (from UniProt A2A935 1-1275) | binds
3 | no binding | HA-Pgc1α (protein, UniProt O70343 1-797) MAWDMCSQDSVWSDIECAALVGEDQPLCPDLPELDLSELDVNDLDTDSFLGGLKWCSDQSEIISNQYNNEPANIFEKIDEENEANLLAVLTETLDSLPVDEDGLPSFDALTDGAVTTDNEASPSSMPDGTPPPQEAEEPSLLKKLLLAPANTQLSYNECSGLSTQNHAANHTHRIRTNPAIVKTENSWSNKAKSICQQQKPQRRPCSELLKYLTTNDDPPHTKPTENRNSSRDKCASKKKSHTQPQSQHAQAKPTTLSLPLTPESPNDPKGSPFENKTIERTLSVELSGTAGLTPPTTPPHKANQDNPFKASPKLKPSCKTVVPPPTKRARYSECSGTQGSHSTKKGPEQSELYAQLSKSSGLSRGHEERKTKRPSLRLFGDHDYCQSLNSKTDILINISQELQDSRQLDFKDASCDWQGHICSSTDSGQCYLRETLEASKQVSPCSTRKQLQDQEIRAELNKHFGHPCQAVFDDKSDKTSELRDGDFSNEQFSKLPVFINSGLAMDGLFDDSEDESDKLSYPWDGTQPYSLFDVSPSCSSFNSPCRDSVSPPKSLFSQRPQRMRSRSRSFSRHRSCSRSPYSRSRSRSPGSRSSSRSCYYYESSHYRHRTHRNSPLYVRSRSRSPYSRRPRYDSYEAYEHERLKRDEYRKEHEKRESERAKQRERQKQKAIEERRVIYVGKIRPDTTRTELRDRFEVFGEIEECTVNLRDDGDSYGFITYRYTCDAFAALENGYTLRRSNETDFELYFCGRKQFFKSNYADLDTNSDDFDPASTKSKYDSLDFDSLLKEAQRSLRR | 
